# Assay results published in PubChem BioAssay AID504467 (National Center for Advancing Translational Sciences (NCATS), 2011).
# Among all 330,000 compounds or so, about 7,700 (2.3%) were called active. The shares of active, inactive and inconclusive entries below differ from those in the screen. Calls come from the whole dose curve; as a rule, active = well fitted inhibition curve with a large enough effect; inconclusive = small, poorly fitted or top-dose-only effect, or effect the other way; inactive = flat fitted curve, though single readings scatter. Potencies of inconclusive entries are doubtful fits and often do not repeat.
# Experiment: qHTS screen for small molecules that inhibit ELG1-dependent DNA repair in human embryonic kidney (HEK293T) cells expressing luciferase-tagged ELG1; note: nearly all actives have a fitted effect of over 55% in size
# Settings: HEK293T ELG1-luciferase reporter, luminescence, 16 h, DNA damage induced by 5-fluorouridine; activity change, negative = inhibition: at 46.1 µM (top of the series)
# In short: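 Reporter activity after DNA damage by 5-fluorouridine is monitored. Compound-treated cells incubate 16 hr at 37 °C, then ONE-Glo is added for 30 min before luminescence reading.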
# % is set by controls: 0 for no effect and ±100 for the full control effect; potency is the fitted concentration of half-maximal effect.
SMILES,Potency,"activity change, negative = inhibition"
Cc1ccc(C(=O)NNc2c3ccccc3nc3ccccc23)cc1,"inconclusive: 20.6 µM [activator, partial curve]",
O=C(c1ccc2c(=O)n(Cc3ccccc3Cl)c(=S)[nH]c2c1)N1CCCC1,,inactive: 1.78%
Cc1ccc(S(=O)(=O)N(CC(=O)NCCC2=CCCCC2)Cc2ccccc2)cc1,,inactive: -6.74%
CCc1ccc(NC(=O)C(C)OC(=O)CN2C(=O)NC3(CCCC3)C2=O)cc1 (stereo not drawn),"inconclusive: 18.3 µM [activator, partial curve, poor fit]",
O=C1CCCN1c1ccc(S(=O)(=O)Nc2ccc3c(c2)OCCO3)cc1,"inconclusive: 3.66 µM [inhibitor, partial curve, poor fit]",
CC(Oc1ccc2ccccc2c1)C(=O)NNC(=O)Nc1ccccc1F (stereo not drawn),,inactive: 7.46%
CCOC(=O)c1c(C)n(C)c2c1cc(OC(C)=O)c1ccccc12,,inactive: -4.47%
Cc1c(C(=O)NCc2ccc3c(c2)OCO3)sc2nc(-c3ccccc3)cn12,,inactive: 10.7%
O=C(NCc1ccco1)C1CCN(C(=O)c2cc3sccc3n2Cc2ccc(F)cc2)CC1,"inconclusive: 29.1 µM [inhibitor, single point]",
COc1cc2ccccc2cc1C(=O)N(CCN(C)C)c1nc2c(F)cc(F)cc2s1,"inconclusive: 16.4 µM [inhibitor, partial curve, poor fit]",
CC(=O)Nc1ccc(C(=O)Nc2cccc(S(=O)(=O)N(C)c3ccccc3)c2)cc1,"inconclusive: 23.1 µM [inhibitor, single point]",
CCCCCCCCn1c(=O)c(C(=O)OCC)c(O)c2ccccc21,,inactive: 2.42%
CCN(C(=O)COC(=O)c1ccc(SC)cc1OC)C1CCS(=O)(=O)C1 (stereo not drawn),,inactive: 7.32%
COC(=O)c1c(NC(=O)COC(=O)c2ccc(O)cc2)sc2c1CCCCC2,"inconclusive: 20.6 µM [inhibitor, single point]",
CC(C)CNC(=S)NC(=O)c1ccc(F)cc1,"inconclusive: 18.4 µM [activator, single point]",
O=C(O)c1cc(-c2ccc(Cl)s2)nc2ccccc12,"inconclusive: 29.1 µM [activator, single point]",
CC(C)C[C@H](NC(=O)c1nc[nH]c1C(=O)NC1CCN(C(=O)OC(C)(C)C)CC1)C(=O)OC(C)(C)C,,inactive: -12.1%
O=C(NCc1ccncc1)c1ccc(Br)o1,,inactive: 15.9%
COc1cc(C(=O)Oc2c(OC)cc(C(=S)N3CCOCC3)cc2OC)cc(OC)c1OC,,inactive: 9.23%
Cc1onc(-c2ccccc2)c1C(=O)Nc1cccc(C#N)c1,"inconclusive: 23.1 µM [activator, partial curve, poor fit]",
COc1cc(C(C)=O)ccc1COc1ccc(C(=O)OCC(=O)NC2CCS(=O)(=O)C2)cc1OC (stereo not drawn),"inconclusive: 18.4 µM [inhibitor, partial curve]",
O=C1c2cccc3cccc(c23)C(=O)N1CCN1CCN(CC(O)COc2ccccc2)CC1 (stereo not drawn),"inconclusive: 29.1 µM [inhibitor, single point]",

SMILES,Potency,"activity change, negative = inhibition"
OCCNc1c2ccccc2nc2c(F)c(F)c(F)c(F)c12,"inconclusive: 29.1 µM [inhibitor, single point]",
COc1ccc(OC)c(N(CC(=O)N2CCCC2)S(C)(=O)=O)c1,,inactive: -0.731%
CCN(CC)C(=O)c1cc2c(=O)c3cc(F)ccc3oc2nc1C,"inconclusive: 18.3 µM [activator, partial curve]",
CN(CC(=O)Nc1cccc(F)c1)C(=O)c1ccc2c(c1)CC(c1ccccc1)OC2=O (stereo not drawn),"inconclusive: 3.66 µM [inhibitor, full curve, poor fit]",
C=C(C)c1cccc(C(C)(C)NC(=O)N2CCN(C/C=C/c3ccccc3)CC2)c1,"inconclusive: 29.1 µM [inhibitor, single point]",
COc1ccc(C2=NS(=O)(=O)N(C)C(C(=O)Nc3ccc4c(c3)OCO4)=C2)cc1,,inactive: 26.6%
CCSc1ccc([C@@H]2[C@H]3C(=O)N(CC)C(=O)[C@H]3[C@]3(C(=O)OC)CCCCN23)cc1OC,,inactive: -9.45%
COc1cc(/C=C2/SC(=S)N(c3ccccc3)C2=O)ccc1Oc1nc(N2CCOCC2)nc(N2CCOCC2)n1,"inconclusive: 2.31 µM [inhibitor, partial curve]",
CC(=O)Nc1cccc(OCC(=O)Nc2ccccc2)c1,"inconclusive: 20.6 µM [activator, partial curve, poor fit]",
Cc1ccc(O)c(NC(=O)c2onc(C)c2Cl)c1,"inconclusive: 8.2 µM [activator, partial curve]",
CN(Cc1ccccc1)c1ncnc2c1cnn2-c1ccccc1,"inconclusive: 4.11 µM [activator, full curve]",
CCCSc1nc(NCc2ccco2)c2c3c(sc2n1)COC(C)(CC)C3 (stereo not drawn),"inconclusive: 11.6 µM [inhibitor, partial curve]",
O=C(NN1C(=O)c2ccccc2NC1c1ccco1)c1ccc(Br)cc1 (stereo not drawn),"inconclusive: 3.66 µM [activator, single point]",
CCCCNC(=O)c1ccc2c(c1)S(=O)(=O)c1ccccc1C2=O,,inactive: 18.2%
Cc1ccc(NS(=O)(=O)c2ccc(NC(=O)N3CCCCC3)cc2)cc1,"inconclusive: 13 µM [inhibitor, partial curve]",
Cn1c(-c2ccc(C=O)s2)nc2c3ccccc3c3ccccc3c21,"inconclusive: 29.1 µM [inhibitor, single point]",
CC(C)c1ccc(NC(=O)N(CCc2nc3ccccc3[nH]2)C2CCCC2)cc1,"inconclusive: 29.1 µM [inhibitor, single point]",
Cc1cc(C)n2nc(C(=O)N/N=C/c3ccccc3C)nc2n1,"inconclusive: 20.6 µM [activator, partial curve, poor fit]",
O=C(CSc1nnc(NC(=O)c2ccc(F)cc2F)s1)NC1CC1,"inconclusive: 18.3 µM [activator, single point]",
Cc1nn(-c2ccccc2)c(C)c1/C=N/NC(=O)c1cccs1,"inconclusive: 6.51 µM [activator, partial curve]",
CC(=O)C1=C(C)NC(SCC(=O)c2ccc(F)cc2)=C(C#N)C1CC(C)C (stereo not drawn),"inconclusive: 23.1 µM [activator, single point]",

# An excerpt from above in order of length of the SMILES, high to low:
SMILES,Potency,"activity change, negative = inhibition"
COc1ccc(C2=NS(=O)(=O)N(C)C(C(=O)Nc3ccc4c(c3)OCO4)=C2)cc1,,inactive: 26.6%
CN(CC(=O)Nc1cccc(F)c1)C(=O)c1ccc2c(c1)CC(c1ccccc1)OC2=O (stereo not drawn),"inconclusive: 3.66 µM [inhibitor, full curve, poor fit]",
OCCNc1c2ccccc2nc2c(F)c(F)c(F)c(F)c12,"inconclusive: 29.1 µM [inhibitor, single point]",
CC(=O)Nc1cccc(OCC(=O)Nc2ccccc2)c1,"inconclusive: 20.6 µM [activator, partial curve, poor fit]",
